# This is one part of the list.
# Tested on: T1, CTL2-GFP (C. trachomatis L2/434/Bu, GFP-expressing)
# T1 construct: L2/434/Bu, GFP-expressing
# Design: species or system HeLa; Intracellular C. trachomatis growth in HeLa cells, bulk GFP fluorescence relative to DMSO
# Conditions: bulk GFP, single well; 28.5 h, 10 µM; inhibitor
row,SMILES,% of control remaining [%]
1,c1ccc2[nH]c(NCCN3CCOCC3)nc2c1 [CBK268791],163.907
2,Cc1ccc(OCc2ccc(Cl)s2)c(Br)c1 [CBK002840],109.49
3,COc1ccc(Cn2nc(NS(=O)(=O)c3cn(C)cn3)c3ccccc32)cc1 [CBK048143],118.421
4,O=C(Nc1cc(N2CCNCC2)ncn1)c1cnc2ccccc2c1 [CBK004209T],114.683
5,O=C(NCCOc1ccc(F)cc1)c1cccs1 [CBK057930],118.417
6,COc1ccc(N(CC(=O)N2CCN(Cc3ccc4c(c3)OCO4)CC2)S(C)(=O)=O)cc1Cl [CBK265258],120.061
7,CCN(CC)c1ccc(NC(=O)c2cc(-c3cccnc3)cnc2NCCN2CCOCC2)cc1 [CBK126566],99.4832
8,C[S+]([O-])CCC(NS(=O)(=O)c1ccccc1)C(=O)O (stereo not shown) [CBK268267],103.196
9,O=C(O)c1cccc(-n2c(S)nnc2-c2cnccn2)c1 [CBK269252],121.703
10,CCN(CC)c1ccc(NC(=O)c2cccc(OC)c2OC)c(C)c1 [CBK097801],100
11,Nc1nc(SCC(=O)NCCCO)nc2sc3c(c12)CCC3 [CBK264952],111.383
12,C=CCn1c(C)c(CN2CCc3nc(C)[nH]c(=O)c3C2)c2ccccc21 [CBK282375],125.09
13,CC(C)Nc1nc2ccccc2nc1SCCOc1ccccc1 [CBK103668],89.7517
14,CC(C)(C)OC(=O)NCc1ccc(-c2cc(NC3CCCCC3)ncn2)cc1 [CBK090898],156.754
15,COc1cc(OC)nc(NC(=O)CN2CCN(c3ccc(F)cc3)CC2)n1 [CBK267259],164.391
16,Cc1nc(CN2CCCN(C(=O)c3cccc(C#N)c3)CC2)cs1 [CBK305363],99.4161
17,COc1cc(/C=C2/SC(=O)NC2=O)cc(I)c1O [CBK100075],117.459
18,COc1ccc(C(NC(=O)[C@H]2CCCN2C(=O)COc2ccccc2)c2ccccc2C)cn1 (stereo partly shown) [CBK076682],88.808
19,O=C(CSc1nnc(C2CC2)[nH]1)Nc1ccc(SC(F)F)cc1 [CBK295302],137.779
20,CCN1C(=O)CC(n2c(C)nc3ccccc32)C1=O (stereo not shown) [CBK287847],127.334
21,CCc1nc2ccc(C(=O)N(C)C(C)C)cn2c1N(C)CCN1CCOCC1 [CBK146436],142.696
22,O=C1CCC(C(=O)N2CCN(S(=O)(=O)c3ccccc3Cl)CC2)N1 (stereo not shown) [CBK304561],99.8397

# Reformatted with tabs: part of the list above
row	SMILES	% of control remaining [%]
5	O=C(NCCOc1ccc(F)cc1)c1cccs1 [CBK057930]	118.417
6	COc1ccc(N(CC(=O)N2CCN(Cc3ccc4c(c3)OCO4)CC2)S(C)(=O)=O)cc1Cl [CBK265258]	120.061
